What is called cell viability is a read-out of living cells in per cent, often relative to untreated cells.

Molecules are shown by their SMILES. Counter-ions that a name gives are not always drawn. Some of the results follow. This is a noisy data set.

The subject of this test is Peyronie's disease tunica albuginea primary fibroblasts. Kind of test: cell viability (DRAQ5 nuclear stain) relative to TGF-beta1-only control; higher = more viable cells. The settings on record: 10 µM; TGF-beta1 10 ng/mL; 72 h.
Turning to `CO/N=C(\C(=O)N[C@@H]1C(=O)N2C(C(=O)O)=C(CSC(=O)c3ccco3)CS[C@H]12)c1csc(N)n1` [Ceftiofur], the cell viability was 94.7%.

For the compound `CO/N=C(\C(=O)N[C@@H]1C(=O)N2C(C(=O)O)=C(CSC(=O)c3ccco3)CS[C@H]12)c1csc(N)n1` [Ceftiofur HCl], the cell viability stood at 86.4%.

On to `C/C(O)=C(\C#N)C(=O)Nc1ccc(C(F)(F)F)cc1` [Teriflunomide], for which the cell viability was 105%.

With `COc1nc(C)cnc1NS(=O)(=O)c1cccnc1-c1ccc(-c2nnco2)cc1` [Zibotentan (ZD4054)], the cell viability was 94.7%.

In the case of `N[C@@H](CC(=O)N1CCn2c(nnc2C(F)(F)F)C1)Cc1cc(F)c(F)cc1F` [Sitagliptin], the cell viability was found to be 95.9%.

Turning to `N[C@@H](CC(=O)N1CCn2c(nnc2C(F)(F)F)C1)Cc1cc(F)c(F)cc1F` [Sitagliptin phosphate monohydrate], the cell viability was determined as 89.6%.

`Cc1ccc(C(C)C)c(O)c1` [Thymol]: the cell viability stood at 97.3%.

As to `CC(=O)[O-].[K+]` [Potassium acetate], the cell viability was found to be 84.7%.

For the compound `C#CC1(O)CC[C@H]2[C@@H]3CCC4=CC(=O)CC[C@@H]4[C@H]3CC[C@@]21CC` (stereo partly drawn) [Norgestrel], the cell viability stood at 91.5%.

In the case of `CC/C=C(\C(=O)N[C@@H]1C(=O)N2C(C(=O)OCOC(=O)C(C)(C)C)=C(COC(N)=O)CS[C@H]12)c1csc(N)n1` [Cefcapene Pivoxil Hydrochloride], the cell viability was determined as 82.8%.

On to `CC(=O)O[C@]1(C(C)=O)CC[C@H]2[C@@H]3C=C(C)C4=CC(=O)CC[C@]4(C)[C@H]3CC[C@@]21C` [Megestrol Acetate], for which the cell viability was 99.4%.

For the compound `C=C1[C@H](CO)[C@@H](O)C[C@@H]1n1cnc2c(=O)[nH]c(N)nc21` [Entecavir Hydrate], the cell viability came out at 90.5%.

As to `C=C1[C@H](CO)[C@@H](O)C[C@@H]1n1cnc2c(=O)[nH]c(N)nc21` [Entecavir], the cell viability worked out at 93.2%.

Consider `CN(C)C(=O)c1cc2cnc(Nc3ccc(N4CCNCC4)cn3)nc2n1C1CCCC1` [Ribociclib (LEE011)], for which the cell viability was determined as 68.3%.

On to `CC[C@@]1(O)C(=O)OCc2c1cc1n(c2=O)Cc2cc3c(CN(C)C)c(O)ccc3nc2-1` [Topotecan HCl], for which the cell viability amounted to 51.8%.

With `CCOC(=O)N[C@@H]1CC[C@@H]2[C@@H](C1)C[C@H]1C(=O)O[C@H](C)[C@H]1[C@H]2/C=C/c1ccc(-c2cccc(F)c2)cn1` [Vorapaxar], the cell viability is 90.7%.

For `Cc1cc(Nc2cc(CN3CCOCC3)c3nc(C)c(Cc4ccc(Cl)cc4F)n3n2)n[nH]1`, the cell viability was 62.1%.

Take `Nc1nnc(-c2cccc(Cl)c2Cl)c(N)n1` [Lamotrigine]: the cell viability came to 88.2%.

For the compound `Nc1nc(=O)[nH]cc1F` [Flucytosine], the cell viability was determined as 96.1%.

Turning to `COc1cc2c(cc1Cc1cccc(Cl)c1F)c(=O)c(C(=O)O)cn2[C@H](CO)C(C)C` [Elvitegravir (GS-9137, JTK-303)], the cell viability was 81%.

Turning to `COc1ccc2cc3[n+](cc2c1OC)CCc1cc2c(cc1-3)OCO2` [Berberine chloride], the cell viability stood at 98.5%.

On to `COc1ccc2cc3[n+](cc2c1OC)CCc1cc2c(cc1-3)OCO2` [Berberine Sulfate], for which the cell viability worked out at 72.2%.

Regarding `CC(=O)NC[C@H]1CN(c2ccc(N3CCOCC3)c(F)c2)C(=O)O1` [Linezolid], the cell viability was 99.8%.

For the compound `Cc1nccn1CC1CCc2c(c3ccccc3n2C)C1=O` (stereo not drawn) [Ondansetron HCl], the cell viability turned out to be 102%.

Consider `Cc1nccn1CC1CCc2c(c3ccccc3n2C)C1=O` (stereo not drawn) [Ondansetron Hydrochloride Dihydrate], for which the cell viability came to 98%.

`COc1ccc2c(c1)c(CC(=O)OCC(=O)O)c(C)n2C(=O)c1ccc(Cl)cc1` [Acemetacin]: the cell viability was 80.1%.

In the case of `CCOCCn1c(N2CCCN(C)CC2)nc2ccccc21` [Emedastine], the cell viability was 109%.

In the case of `CCOCCn1c(N2CCCN(C)CC2)nc2ccccc21` [Emedastine Difumarate], the cell viability was found to be 95.2%.

Turning to `CC1=C(C(=O)O)N2C(=O)[C@@H](NC(=O)[C@H](N)c3ccccc3)[C@H]2SC1` [Cephalexin], the cell viability stood at 101%.

In the case of `CC[C@H](C)C(=O)O[C@H]1C[C@H](O)C=C2C=C[C@H](C)[C@H](CC[C@@H](O)C[C@@H](O)CC(=O)O)[C@H]21` [Pravastatin sodium], the cell viability was found to be 97.4%.

For the compound `Cc1cccn2c(=O)c(-c3nnn[nH]3)cnc12` [Pemirolast potassium], the cell viability came out at 84.7%.

Consider `Nc1ccccc1NC(=O)c1ccc(CNc2nccc(-c3cccnc3)n2)cc1` [Mocetinostat (MGCD0103)], for which the cell viability was found to be 45.2%.

In the case of `CC(C)(C)NCC(O)COc1cccc2c1CC(O)C(O)C2` (stereo not drawn) [Nadolol], the cell viability amounted to 96.2%.

As for `CC(C)CCCCC(=O)N[C@@H](CCN)C(=O)N[C@H](C(=O)N[C@@H](CCN)C(=O)N[C@H]1CCNC(=O)[C@H]([C@@H](C)O)NC(=O)[C@H](CCN)NC(=O)[C@H](CCN)NC(=O)[C@H](CC(C)C)NC(=O)[C@@H](Cc2ccccc2)NC(=O)[C@H](CCN)NC1=O)[C@@H](C)O` [Polymyxin B sulphate], the cell viability worked out at 106%.

Take `CC1=C(C(=O)O)N2C(=O)[C@@H](NC(=O)[C@H](N)c3ccc(O)cc3)[C@H]2SC1` [Cefadroxil hydrate]: the cell viability was found to be 96.3%.

Turning to `NC(=O)[C@@H](CCC(F)(F)F)N(Cc1ccc(-c2ncon2)cc1F)S(=O)(=O)c1ccc(Cl)cc1`, the cell viability amounted to 80%.

Turning to `C=CCN1CCCC1CNC(=O)c1cc2nn[nH]c2cc1OC` (stereo not drawn) [Alizapride HCl], the cell viability worked out at 99.3%.

For the compound `CC(C)(Oc1ccc(C2CC2(Cl)Cl)cc1)C(=O)O` (stereo not drawn) [Ciprofibrate], the cell viability is 91.3%.

For `O=C(O)CCc1nc2ccccc2[nH]1` [Procodazole], the cell viability worked out at 91.5%.

Take `NC(=O)c1cccnc1` [Nicotinamide (Vitamin B3)]: the cell viability was determined as 87.3%.

Consider `Nc1nccs1` [Aminothiazole], for which the cell viability is 92.9%.

Regarding `CC(C)C[C@H](N)C(=O)O` [L-Leucine], the cell viability was 99%.

As for `Cn1c(=O)c2c(ncn2CC(O)CO)n(C)c1=O` (stereo not drawn) [Dyphylline], the cell viability was 91.7%.

For `CCCc1nc(C(C)(C)O)c(C(=O)OCc2oc(=O)oc2C)n1Cc1ccc(-c2ccccc2-c2nnn[nH]2)cc1` [Olmesartan Medoxomil], the cell viability came out at 95.3%.

Consider `CCCCCCCCCCCCCCCC[N+](C)(C)C` [Cetrimonium Bromide (CTAB)], for which the cell viability turned out to be 55.7%.

With `S=c1nc[nH]c2nc[nH]c12` [6-Mercaptopurine (6-MP) Monohydrate], the cell viability was determined as 76.4%.

Consider `CCOC(=O)c1ccc(C#Cc2ccc3c(c2)C(C)(C)CCS3)nc1` [Tazarotene], for which the cell viability was 101%.

As to `CC(C)(C)C#Cc1cc(N(C(=O)[C@H]2CC[C@H](C)CC2)[C@H]2CC[C@H](O)CC2)c(C(=O)O)s1` [Lomibuvir (VX-222, VCH-222)], the cell viability was 85.5%.

As for `CCC(C)(C)c1ccc(CC(C)CN2C[C@@H](C)O[C@@H](C)C2)cc1` (stereo partly drawn) [Amorolfine HCl], the cell viability turned out to be 97%.

Regarding `CC[C@]12CCCN3CCc4c(n(c5ccccc45)[C@@](O)(C(=O)OC)C1)[C@@H]32` [Vincamine], the cell viability stood at 93.5%.

As for `NCCNc1ccc(NCCN)c2c1C(=O)c1ccncc1C2=O` [Pixantrone Maleate], the cell viability stood at 42.8%.

Regarding `O=c1[nH]c(=O)n([C@H]2C[C@H](O)[C@@H](CO)O2)cc1/C=C/Br` [Brivudine], the cell viability came to 87.5%.

`CCOc1nc2cccc(C(=O)OC(C)OC(=O)OC3CCCCC3)c2n1Cc1ccc(-c2ccccc2-c2nn[nH]n2)cc1` (stereo not drawn) [Candesartan Cilexetil]: the cell viability amounted to 91.9%.

Turning to `CCN1CCC[C@H]1CNC(=O)c1cc(S(N)(=O)=O)ccc1OC` [Levosulpiride], the cell viability was determined as 87.5%.

`Nc1ccc(S(N)(=O)=O)cc1` [Sulfanilamide]: the cell viability worked out at 96.9%.

In the case of `CCCNS(=O)(=O)Nc1ncnc(OCCOc2ncc(Br)cn2)c1-c1ccc(Br)cc1` [Macitentan], the cell viability stood at 106%.

On to `CC1=C(C(=O)OCCN(Cc2ccccc2)c2ccccc2)C(c2cccc([N+](=O)[O-])c2)C(P2(=O)OCC(C)(C)CO2)=C(C)N1` (stereo not drawn) [Efonidipine], for which the cell viability is 96.8%.

As to `CN(C)CCN1C(=O)c2cccc3cc(N)cc(c23)C1=O` [Amonafide], the cell viability turned out to be 49.4%.

On to `CCOc1ccc(Cc2cc([C@@H]3O[C@H](CO)[C@@H](O)[C@H](O)[C@H]3O)ccc2Cl)cc1` [Dapagliflozin propanediol monohydrate], for which the cell viability was found to be 73.8%.

In the case of `CCOc1ccc(Cc2cc([C@@H]3O[C@H](CO)[C@@H](O)[C@H](O)[C@H]3O)ccc2Cl)cc1` [Dapagliflozin], the cell viability was 65.9%.

Regarding `O[C@@H]1CO[C@H]2[C@@H]1OC[C@@H]2O` [Isosorbide], the cell viability was determined as 85.4%.

`Cc1c(O)cccc1C(=O)N[C@@H](CSc1ccccc1)[C@H](O)CN1C[C@H]2CCCC[C@H]2C[C@H]1C(=O)NC(C)(C)C` [Nelfinavir Mesylate]: the cell viability was determined as 66.9%.

Consider `CN(C)CCC(c1ccccc1)c1ccccn1` (stereo not drawn) [Pheniramine Maleate], for which the cell viability is 88.5%.

For `Cc1ccc(O)c([C@H](CCN(C(C)C)C(C)C)c2ccccc2)c1` [Tolterodine tartrate], the cell viability was determined as 81.3%.

As to `Oc1c(Cl)cc(Cl)cc1Sc1cc(Cl)cc(Cl)c1O` [Bithionol], the cell viability came out at 91.6%.

`NC[C@H]1CC[C@H](C(=O)O)CC1` [Tranexamic Acid]: the cell viability stood at 89.7%.

On to `CCCCOc1ccc(CC(=O)NO)cc1` [Bufexamac], for which the cell viability was determined as 87%.

`CC(=O)OC(C)C[N+](C)(C)C` (stereo not drawn) [Methacholine chloride]: the cell viability is 88.2%.

For the compound `Nc1nc(=O)c2c([nH]1)NCC(CNc1ccc(C(=O)N[C@@H](CCC(=O)O)C(=O)O)cc1)N2C=O` (stereo partly drawn) [Leucovorin Calcium Pentahydrate], the cell viability was 97.6%.

As to `Nc1nc(=O)c2c([nH]1)NCC(CNc1ccc(C(=O)N[C@@H](CCC(=O)O)C(=O)O)cc1)N2C=O` (stereo partly drawn) [Calcium folinate], the cell viability turned out to be 98.2%.

Take `O=C(O)c1cc(=O)c2c(OCC(O)COc3cccc4oc(C(=O)O)cc(=O)c34)cccc2o1` [Disodium Cromoglycate]: the cell viability stood at 86.1%.

Consider `NC(=O)NO` [Hydroxyurea], for which the cell viability was 82.8%.

Take `Clc1ccccc1C(c1ccccc1)(c1ccccc1)n1ccnc1` [Clotrimazole]: the cell viability came to 95.2%.

The values are drawn from the supplement of paper PMC9744312.
